The reference is the same well before dosing, and untreated signal decays as well.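 Fibroblast labels name human fibroblasts: mostly primary ones from tissues such as uterus (C12385, HUF), lung (H6013), bone (Hs27A), adrenal (HADF) and skin (WS1), plus mammary HMF and breast cancer-associated Hs343T. The cancer cells are basal-like or mesenchymal-like triple-negative breast cancer lines. The paper calls a changed response a hit when it shifts by more than 3x the replicate standard deviation. The tissue of the other fibroblasts is not given here.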
System: MDAMB436
Assay: relative JC-1 red fluorescence (viability) vs pre-drug, coculture with fibroblast (fraction); higher = more viable cancer cells
Method: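 JC-1 labelled TNBC cells cocultured 1:1 (1,500 cells each) with CellTrace Violet stained primary or stromal fibroblasts in 384-well plates in FluoroBrite medium, treated with one of 42 anticancer drugs at 0.1, 1, 10 or 100 uM. JC-1 red fluorescence (mitochondrial integrity in cancer cells only) was read by plate reader every 8 h for 72 h. Values are normalised to each well's pre-drug value. The stock of one drug was tenfold lower, so its dose labels may be too high.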

N#Cc1ccc(C(c2ccc(C#N)cc2)n2cncn2)cc1 [Letrozole]
relative JC-1 red fluorescence
Conditions | 8 h | 16 h | 24 h | 32 h | 40 h | 48 h | 56 h | 64 h | 72 h
0.1 µM, coculture fibroblast: C12385 | 0.7925 | 0.683 | 0.639 | 0.5476 | 0.4945 | 0.463 | 0.44 | 0.417 | 0.412
0.1 µM, coculture fibroblast: H6013 | 0.777 | 0.722 | 0.694 | 0.68 | 0.658 | 0.676 | 0.641 | 0.623 | 0.582
0.1 µM, coculture fibroblast: H6019 | 0.6912 | 0.633 | 0.581 | 0.4947 | 0.452 | 0.427 | 0.399 | 0.376 | 0.349
0.1 µM, coculture fibroblast: H6076 | 0.7345 | 0.654 | 0.622 | 0.575 | 0.563 | 0.54 | 0.547 | 0.534 | 0.528
0.1 µM, coculture fibroblast: H6231 | 0.735 | 0.668 | 0.698 | 0.62 | 0.614 | 0.575 | 0.562 | 0.546 | 0.53
0.1 µM, coculture fibroblast: HADF | 0.815 | 0.68 | 0.632 | 0.582 | 0.546 | 0.546 | 0.495 | 0.481 | 0.451
0.1 µM, coculture fibroblast: HCFa | 0.7011 | 0.63 | 0.61 | 0.572 | 0.545 | 0.563 | 0.497 | 0.491 | 0.435
0.1 µM, coculture fibroblast: HCPF | 0.739 | 0.674 | 0.653 | 0.59 | 0.572 | 0.544 | 0.517 | 0.498 | 0.481
0.1 µM, coculture fibroblast: HHSteC | 0.828 | 0.7628 | 0.737 | 0.701 | 0.687 | 0.691 | 0.636 | 0.612 | 0.559
0.1 µM, coculture fibroblast: HMF | 0.751 | 0.69 | 0.658 | 0.619 | 0.602 | 0.578 | 0.581 | 0.553 | 0.541
0.1 µM, coculture fibroblast: HPFa | 0.9001 | 0.787 | 0.74 | 0.682 | 0.659 | 0.6534 | 0.578 | 0.543 | 0.4792
0.1 µM, coculture fibroblast: HUF | 0.862 | 0.739 | 0.704 | 0.628 | 0.571 | 0.543 | 0.51 | 0.5 | 0.493
0.1 µM, coculture fibroblast: Hs5 | 0.749 | 0.6709 | 0.6517 | 0.594 | 0.5846 | 0.547 | 0.56502 | 0.528 | 0.522
0.1 µM, coculture fibroblast: Hs27A | 0.812 | 0.736 | 0.704 | 0.682 | 0.655 | 0.713 | 0.612 | 0.591 | 0.514
0.1 µM, coculture fibroblast: Hs343T | 0.796 | 0.724 | 0.662 | 0.608 | 0.568 | 0.526 | 0.501 | 0.476 | 0.465
0.1 µM, coculture fibroblast: WS1 | 0.74 | 0.66 | 0.621 | 0.533 | 0.483 | 0.457 | 0.431 | 0.402 | 0.393
1 µM, coculture fibroblast: C12385 | 0.8168 | 0.714 | 0.6825 | 0.5983 | 0.5512 | 0.519 | 0.499 | 0.476 | 0.474
1 µM, coculture fibroblast: H6013 | 0.842 | 0.735 | 0.751 | 0.747 | 0.73 | 0.742 | 0.709 | 0.688 | 0.643
1 µM, coculture fibroblast: H6019 | 0.7461 | 0.624 | 0.599 | 0.5233 | 0.481 | 0.454 | 0.424 | 0.396 | 0.364
1 µM, coculture fibroblast: H6076 | 0.751 | 0.631 | 0.595 | 0.566 | 0.549 | 0.534 | 0.535 | 0.536 | 0.541
1 µM, coculture fibroblast: H6231 | 0.784 | 0.684 | 0.654 | 0.613 | 0.585 | 0.561 | 0.544 | 0.52 | 0.498
1 µM, coculture fibroblast: HADF | 0.814 | 0.7307 | 0.71 | 0.684 | 0.666 | 0.677 | 0.637 | 0.636 | 0.6
1 µM, coculture fibroblast: HCFa | 0.768 | 0.665 | 0.635 | 0.598 | 0.564 | 0.575 | 0.509 | 0.5 | 0.443
1 µM, coculture fibroblast: HCPF | 0.7855 | 0.707 | 0.648 | 0.602 | 0.569 | 0.538 | 0.508 | 0.496 | 0.468
1 µM, coculture fibroblast: HHSteC | 0.8042 | 0.728 | 0.699 | 0.662 | 0.64 | 0.652 | 0.599 | 0.572 | 0.519
1 µM, coculture fibroblast: HMF | 0.7789 | 0.679 | 0.6423 | 0.618 | 0.592 | 0.564 | 0.556 | 0.543 | 0.529
1 µM, coculture fibroblast: HPFa | 0.867 | 0.796 | 0.746 | 0.704 | 0.676 | 0.676 | 0.592 | 0.566 | 0.494
1 µM, coculture fibroblast: HUF | 0.8095 | 0.6945 | 0.668 | 0.588 | 0.533 | 0.509 | 0.482 | 0.463 | 0.453
1 µM, coculture fibroblast: Hs5 | 0.7869 | 0.706 | 0.702 | 0.649 | 0.639 | 0.601 | 0.61 | 0.583 | 0.57
1 µM, coculture fibroblast: Hs27A | 0.784 | 0.7 | 0.659 | 0.626 | 0.59 | 0.623 | 0.546 | 0.517 | 0.452
1 µM, coculture fibroblast: Hs343T | 0.864 | 0.749 | 0.675 | 0.639 | 0.587 | 0.541 | 0.512 | 0.484 | 0.466
1 µM, coculture fibroblast: WS1 | 0.769 | 0.657 | 0.6514 | 0.5758 | 0.529 | 0.503 | 0.485 | 0.453 | 0.435
10 µM, coculture fibroblast: C12385 | 0.766 | 0.7081 | 0.6758 | 0.582 | 0.541 | 0.5171 | 0.4976 | 0.48164 | 0.4742
10 µM, coculture fibroblast: H6013 | 0.773 | 0.731 | 0.7077 | 0.683 | 0.66 | 0.683 | 0.648 | 0.628 | 0.59
10 µM, coculture fibroblast: H6019 | 0.7564 | 0.7035 | 0.665 | 0.584 | 0.539 | 0.518 | 0.487 | 0.459 | 0.441
10 µM, coculture fibroblast: H6076 | 0.696 | 0.615 | 0.586 | 0.548 | 0.533 | 0.518 | 0.53 | 0.522 | 0.507
10 µM, coculture fibroblast: H6231 | 0.672 | 0.545 | 0.574 | 0.491 | 0.486 | 0.454 | 0.45 | 0.436 | 0.43
10 µM, coculture fibroblast: HADF | 0.804 | 0.778 | 0.753 | 0.725 | 0.706 | 0.729 | 0.663 | 0.651 | 0.61
10 µM, coculture fibroblast: HCFa | 0.827 | 0.789 | 0.77 | 0.72 | 0.685 | 0.685 | 0.612 | 0.6 | 0.541
10 µM, coculture fibroblast: HCPF | 0.732 | 0.693 | 0.677 | 0.63 | 0.619 | 0.587 | 0.554 | 0.531 | 0.506
10 µM, coculture fibroblast: HHSteC | 0.782 | 0.747 | 0.709 | 0.676 | 0.666 | 0.678 | 0.616 | 0.594 | 0.543
10 µM, coculture fibroblast: HMF | 0.7058 | 0.6389 | 0.5994 | 0.5512 | 0.527 | 0.483 | 0.48 | 0.46 | 0.455
10 µM, coculture fibroblast: HPFa | 0.876 | 0.806 | 0.771 | 0.719 | 0.694 | 0.698 | 0.608 | 0.573 | 0.496
10 µM, coculture fibroblast: HUF | 0.821 | 0.7514 | 0.727 | 0.65 | 0.5996 | 0.5676 | 0.549 | 0.5354 | 0.536
10 µM, coculture fibroblast: Hs5 | 0.713 | 0.641 | 0.595 | 0.523 | 0.497 | 0.4541 | 0.457 | 0.423 | 0.418
10 µM, coculture fibroblast: Hs27A | 0.816 | 0.73 | 0.713 | 0.678 | 0.642 | 0.7041 | 0.6117 | 0.598 | 0.5204
10 µM, coculture fibroblast: Hs343T | 0.6922 | 0.6135 | 0.55 | 0.501 | 0.462 | 0.43 | 0.421 | 0.414 | 0.412
10 µM, coculture fibroblast: WS1 | 0.786 | 0.722 | 0.685 | 0.6 | 0.56 | 0.528 | 0.503 | 0.465 | 0.45
100 µM, coculture fibroblast: C12385 | 0.848 | 0.764 | 0.708 | 0.638 | 0.582 | 0.5488 | 0.5089 | 0.478 | 0.454
100 µM, coculture fibroblast: H6013 | 0.91 | 0.875 | 0.808 | 0.796 | 0.779 | 0.78 | 0.753 | 0.727 | 0.687
100 µM, coculture fibroblast: H6019 | 0.809 | 0.73352 | 0.7 | 0.625 | 0.583 | 0.562 | 0.519 | 0.479 | 0.443
100 µM, coculture fibroblast: H6076 | 0.80185 | 0.695 | 0.625 | 0.574 | 0.535 | 0.511 | 0.499 | 0.488 | 0.479
100 µM, coculture fibroblast: H6231 | 0.826 | 0.738 | 0.635 | 0.599 | 0.547 | 0.504 | 0.477 | 0.443 | 0.419
100 µM, coculture fibroblast: HADF | 0.861 | 0.797 | 0.752 | 0.711 | 0.684 | 0.683 | 0.625 | 0.605 | 0.555
100 µM, coculture fibroblast: HCFa | 0.831 | 0.757 | 0.7081 | 0.676 | 0.628 | 0.634 | 0.567 | 0.553 | 0.498
100 µM, coculture fibroblast: HCPF | 0.858 | 0.807 | 0.734 | 0.696 | 0.637 | 0.593 | 0.548 | 0.519 | 0.49
100 µM, coculture fibroblast: HHSteC | 0.8917 | 0.8443 | 0.7931 | 0.745 | 0.714 | 0.708 | 0.641 | 0.605 | 0.546
100 µM, coculture fibroblast: HMF | 0.819 | 0.734 | 0.643 | 0.615 | 0.583 | 0.549 | 0.524 | 0.502 | 0.481
100 µM, coculture fibroblast: HPFa | 0.902 | 0.829 | 0.7735 | 0.7368 | 0.7035 | 0.704 | 0.6207 | 0.5825 | 0.5139
100 µM, coculture fibroblast: HUF | 0.875 | 0.787 | 0.761 | 0.681 | 0.6267 | 0.5923 | 0.5605 | 0.5495 | 0.53997
100 µM, coculture fibroblast: Hs5 | 0.823 | 0.756 | 0.6811 | 0.622 | 0.5904 | 0.5389 | 0.52 | 0.479 | 0.448
100 µM, coculture fibroblast: Hs27A | 0.889 | 0.854 | 0.827 | 0.81 | 0.759 | 0.763 | 0.67 | 0.637 | 0.546
100 µM, coculture fibroblast: Hs343T | 0.816 | 0.704 | 0.62 | 0.562 | 0.526 | 0.484 | 0.458 | 0.44 | 0.426
100 µM, coculture fibroblast: WS1 | 0.8424 | 0.769 | 0.72 | 0.646 | 0.61 | 0.576 | 0.54 | 0.501 | 0.474

Source: the supplement of paper PMC6078165
